Results from one PubChem assay

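Uptake of anthrax lethal toxin into cultured cells, read by FRET (460/530 nm ratio) and reported from the 460 nm channel; the cell line is not named here. Each compound was tested as a concentration series from about 0.0005 to 40 µM. The number is the fitted AC50 of the 460 nm signal alone; lower values mean a more potent effect. A falling signal goes with compounds filed as inhibitors or cytotoxic, a rising one with activators or fluorescent compounds (inferred from the filed classes).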

Values are in µM. Common to all entries: measured here: 460 nm channel. Part of the compounds only, not a random draw; the main read-out is not listed here. Potencies fitted to partial, single-point or poorly fitting curves are rough. The first word of each remark tells which way the curve ran; it can be opposite to the aim of the assay.

{"compound": "NC1=C(c2ccc(F)cc2)C(=O)CS1", "AC50 (µM)": "6.31", "curve as filed": "falling, partial curve, poor fit"}
{"compound": "C=CCn1c(O)c(CN2CCN(Cc3ccccc3)CC2)c(C)c(C#N)c1=O", "AC50 (µM)": "5.012", "curve as filed": "falling, partial curve"}
{"compound": "c1ccc2c(c1)ccc1cc3c(ccc4ccccc43)cc12", "AC50 (µM)": "25.12", "curve as filed": "rising, single point"}
{"compound": "O=C(CN1CCc2ccccc2C1)Nc1ccccc1N1CCCCCC1", "AC50 (µM)": "10", "curve as filed": "falling, partial curve"}
{"compound": "CCOC(=O)N1CCN(S(=O)(=O)c2ccc3c(c2)SC(C)C(=O)N3)CC1", "stereo": "stereo not shown", "AC50 (µM)": "12.59", "curve as filed": "rising, single point"}
{"compound": "COc1ccc(C(=O)N2CCC3(CCCN(c4ccncc4)C3)CC2)cc1", "AC50 (µM)": "10", "curve as filed": "falling, partial curve"}
{"compound": "COc1cc(-c2nnc(CSc3nnc4nc(C)cc(C)n34)o2)cc(OC)c1OC", "AC50 (µM)": "12.59", "curve as filed": "rising, single point"}
{"compound": "Nc1c(S(=O)(=O)c2cccs2)c2nc3ccccc3nc2n1/N=C/c1cccc(O)c1", "AC50 (µM)": "5.012", "curve as filed": "falling, full curve"}
{"compound": "CN1CCN(c2ncc3nc(-c4cn(C)c5ccccc45)c(=O)n(-c4ccccc4)c3n2)CC1", "AC50 (µM)": "3.162", "curve as filed": "rising, partial curve"}
{"compound": "CCOC(=O)c1cc2c(=O)n3ccccc3nc2n(CCCOC)c1=NC(C)=O", "AC50 (µM)": "10", "curve as filed": "rising, partial curve"}
{"compound": "CCCC[C@H]1C[C@@H]1[C@@H]1N(P(=O)(c2ccccc2)c2ccccc2)C[C@@](O)(c2ccccc2)CC12CC2", "AC50 (µM)": "1", "curve as filed": "falling, full curve"}
{"compound": "O=C(Nc1cccs1)NC1CCCC1", "AC50 (µM)": "10", "curve as filed": "falling, partial curve"}
{"compound": "COC(=O)c1cc(NC2c3ccccc3C(=O)N2c2ccc(Cl)cn2)cc(C(=O)OC)c1", "stereo": "stereo not shown", "AC50 (µM)": "10", "curve as filed": "falling, partial curve"}
{"compound": "O=C(CN1CCN(c2ccc(F)cc2)CC1)Nc1cccc(C(F)(F)F)c1", "AC50 (µM)": "31.62", "curve as filed": "falling, single point"}
{"compound": "COc1ccc(CNC(=O)C(C)NC(=O)c2cc3ccccc3o2)cc1", "stereo": "stereo not shown", "AC50 (µM)": "5.012", "curve as filed": "rising, single point"}
{"compound": "CN1CCc2cc(Cl)c(O)cc2[C@H]2c3ccccc3CC[C@@H]21", "AC50 (µM)": "15.85", "curve as filed": "falling, partial curve"}
{"compound": "CCN(CC)c1ccc2cc(C(=O)Nc3ccc(-n4cnnn4)c(OC)c3)c(=O)oc2c1", "AC50 (µM)": "3.162", "curve as filed": "rising, partial curve"}
{"compound": "COC(=O)c1ccc(NC(=O)C2CC(=O)N(c3cc(C)ccc3C)C2)cc1", "stereo": "stereo not shown", "AC50 (µM)": "31.62", "curve as filed": "falling, single point"}
{"compound": "Cc1cc(C)n(-c2nc3ccccc3nc2N2CCN(C(=O)c3ccc(F)cc3)CC2)n1", "AC50 (µM)": "10", "curve as filed": "rising, partial curve"}
{"compound": "C=CCn1c(Cc2c[nH]c3ccccc23)n[nH]c1=S", "AC50 (µM)": "0.07943", "curve as filed": "rising, full curve, poor fit"}
{"compound": "C=CC(=O)N1C(=O)c2ccccc2S1(=O)=O", "AC50 (µM)": "0.3162", "curve as filed": "rising, full curve, poor fit"}
{"compound": "CN(C)c1nc(SCCOC(=O)Nc2ccccc2)nc(N(C)C)n1", "AC50 (µM)": "10", "curve as filed": "falling, single point"}
{"compound": "Cc1ccc(NC(=O)NC(=O)CN2C(=O)NC3(CCCCCCC3)C2=O)c(C)c1", "AC50 (µM)": "10", "curve as filed": "falling, single point"}
{"compound": "CCCCC(=O)Nc1nn(CCC)c2nc3ccccc3cc12", "AC50 (µM)": "10", "curve as filed": "rising, partial curve"}
{"compound": "CC(=O)Nc1cc(C(=O)O)ccc1S(=O)(=O)c1ccc(Cl)cc1", "AC50 (µM)": "0.01585", "curve as filed": "rising, full curve, poor fit"}
{"compound": "CC1(C)OCC(CSC2=C(SCC3COC(C)(C)O3)C(=O)c3ncccc3C2=O)O1", "stereo": "stereo not shown", "AC50 (µM)": "15.85", "curve as filed": "falling, partial curve"}

Some entries from above, unchanged:

Compound,AC50 (µM),curve as filed
Cc1ccc(NC(=O)NC(=O)CN2C(=O)NC3(CCCCCCC3)C2=O)c(C)c1,10,"falling, single point"
CCOC(=O)c1cc2c(=O)n3ccccc3nc2n(CCCOC)c1=NC(C)=O,10,"rising, partial curve"
CC(=O)Nc1cc(C(=O)O)ccc1S(=O)(=O)c1ccc(Cl)cc1,0.01585,"rising, full curve, poor fit"

From PubChem BioAssay record AID912 (NCATS, 2007).